Assay in all cases: affinity purification with mass spectrometry; tandem affinity purification (IgG Sepharose, PreScission protease, Ni Sepharose) of TAP-tagged bait expressed under the 2x35S promoter in Col-0, from protein extracts of fully expanded rosette leaves at the bolting stage, long day conditions; LC-MS/MS; hits enriched over the GFP-TAP control (fold change >= 1.5, p <= 0.05)
Assay [1] concerns the target T1, ATG5^K128R-TAP (Arabidopsis thaliana) (UniProt Q9FFI2).
T1 sequence: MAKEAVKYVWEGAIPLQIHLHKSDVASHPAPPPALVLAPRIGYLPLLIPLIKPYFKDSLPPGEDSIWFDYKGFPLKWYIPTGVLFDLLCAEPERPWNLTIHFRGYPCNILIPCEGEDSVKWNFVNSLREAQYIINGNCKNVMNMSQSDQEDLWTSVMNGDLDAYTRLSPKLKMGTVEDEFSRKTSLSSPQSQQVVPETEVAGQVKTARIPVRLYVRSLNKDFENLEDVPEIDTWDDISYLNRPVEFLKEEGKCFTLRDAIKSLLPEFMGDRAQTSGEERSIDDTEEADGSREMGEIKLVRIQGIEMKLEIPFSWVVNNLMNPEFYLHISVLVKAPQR

Amino acid sequences for entries named in this document (tags omitted). A change or cut given only in a name is not applied to a line headed by its entry.
UniProt Q07100: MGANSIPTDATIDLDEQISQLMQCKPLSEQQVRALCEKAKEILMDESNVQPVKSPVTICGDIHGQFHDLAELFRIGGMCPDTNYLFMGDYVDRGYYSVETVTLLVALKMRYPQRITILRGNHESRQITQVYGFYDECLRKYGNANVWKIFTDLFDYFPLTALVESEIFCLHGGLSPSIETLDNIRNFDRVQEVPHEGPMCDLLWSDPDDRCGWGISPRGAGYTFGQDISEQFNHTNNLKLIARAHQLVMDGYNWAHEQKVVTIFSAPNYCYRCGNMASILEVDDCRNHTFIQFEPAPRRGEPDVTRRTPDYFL
UniProt Q42525: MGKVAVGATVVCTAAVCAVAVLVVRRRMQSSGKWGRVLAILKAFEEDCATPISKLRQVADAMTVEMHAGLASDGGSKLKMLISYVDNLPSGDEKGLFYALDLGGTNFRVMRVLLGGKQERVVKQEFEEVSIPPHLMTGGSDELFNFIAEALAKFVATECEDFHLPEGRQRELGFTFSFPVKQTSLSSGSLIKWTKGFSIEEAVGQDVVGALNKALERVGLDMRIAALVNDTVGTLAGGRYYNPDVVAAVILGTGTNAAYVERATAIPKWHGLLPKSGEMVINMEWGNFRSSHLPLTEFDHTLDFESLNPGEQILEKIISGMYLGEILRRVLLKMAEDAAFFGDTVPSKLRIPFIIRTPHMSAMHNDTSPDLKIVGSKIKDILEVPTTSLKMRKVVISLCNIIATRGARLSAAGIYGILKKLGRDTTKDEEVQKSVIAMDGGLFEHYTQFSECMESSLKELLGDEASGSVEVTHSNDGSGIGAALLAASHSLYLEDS
UniProt Q7DLR9: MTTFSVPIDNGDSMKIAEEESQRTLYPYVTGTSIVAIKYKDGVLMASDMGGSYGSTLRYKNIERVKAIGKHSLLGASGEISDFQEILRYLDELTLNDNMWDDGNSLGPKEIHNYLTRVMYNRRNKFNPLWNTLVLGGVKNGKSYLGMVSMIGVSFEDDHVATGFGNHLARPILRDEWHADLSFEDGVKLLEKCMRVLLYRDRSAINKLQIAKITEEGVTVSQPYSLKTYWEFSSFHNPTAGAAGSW
UniProt Q01474: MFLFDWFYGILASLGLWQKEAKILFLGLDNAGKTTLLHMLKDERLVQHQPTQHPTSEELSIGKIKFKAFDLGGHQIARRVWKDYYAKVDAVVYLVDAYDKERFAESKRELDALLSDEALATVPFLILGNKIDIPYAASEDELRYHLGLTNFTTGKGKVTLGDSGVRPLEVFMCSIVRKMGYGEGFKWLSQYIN

Assay [2] deals with T2, ATG5-TAP (Arabidopsis thaliana) (UniProt Q9FFI2).
T2 sequence: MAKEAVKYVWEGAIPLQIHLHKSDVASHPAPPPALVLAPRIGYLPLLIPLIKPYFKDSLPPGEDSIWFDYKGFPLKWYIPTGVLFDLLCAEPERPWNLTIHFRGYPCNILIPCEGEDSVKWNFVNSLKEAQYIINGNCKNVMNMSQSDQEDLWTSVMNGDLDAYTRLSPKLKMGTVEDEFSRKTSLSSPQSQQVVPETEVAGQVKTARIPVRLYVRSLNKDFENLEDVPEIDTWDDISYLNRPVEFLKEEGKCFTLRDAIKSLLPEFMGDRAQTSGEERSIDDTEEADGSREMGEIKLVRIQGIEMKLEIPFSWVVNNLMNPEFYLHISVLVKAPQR

Assay [3] deals with T1, ATG5^K128R-TAP (Arabidopsis thaliana). The source holds these as a separate data set.
The target of assay [4] is T2, ATG5-TAP (Arabidopsis thaliana). This is another data set of the same source.

Where two headings read alike, the source gives them in different places. These are yes or no findings as the source states them, for the method shown. In cells and extracts the contact can be indirect. A yes stands for co-enrichment or nearness to the bait. Other partners may have been found. For some assays here: No binding means not detected with the bait.

In the case of SAR1C, the binding result in assay [1] is recorded as “binds”; in assay [2], “no binding”.
As to “catalytic subunit of PP2A (PP2A-3) (from UniProt Q07100 1-313)”, in assay [1], the binding result is “binds”.
“hexokinase 1 (from UniProt Q42525 1-496)”: the binding entry in assay [1] and in assay [2] was “binds” in each case.
Turning to “20S proteasome subunit beta G1 (from UniProt Q7DLR9)”, the binding result in assay [1] and in assay [2] was “binds” each time.
As to SAR1B (from UniProt Q01474 1-193), the binding result in assay [1] and in assay [2] was “binds” throughout.

B1: ATG12A (protein, UniProt Q8S924 1-96)
chain: MATESSSPSSVRKVVVHLRATGGAPILKQSKFKIPGTDKFAKVIDFLRRQLHSDSLFVYVNSAFSPNPDESVIDLYNNFGFDGKLVVNYACSMAWG
For the molecule B1, the figures for the binding result in assay [3] and in assay [4] were “no binding” and “binds”, respectively.

B2: SNX2a (protein, UniProt Q8L5Z7 1-587)
chain: MMGSENADGFEETNLNAQRDDMENLDLGVDGGDHPLKISDVNGDTSNSGYRSAMSTLSNVRDPLSPPPTVMIPADSDPLLAPSSYEDFRSSFSSKPISSDNSYIEPPSYADVIFSPFDENSDSEINGTEDNSLHSQFSDSLSRSPSSSSSDYIKITVSNPQKEQEISNSIVGGNTYITYQITTRTNLPDFGGPSEFSVRRRFRDVVTLADRLAETYRGFCIPPRPDKSVVESQVMQKQEFVEQRRVALEKYLRRLSAHPVIRNSDELKVFLQVQGKLPLPMSTDVASRMLDGAVKLPKQLFGEGGASAVPVTEVGQPARGGRDLLRLFKELRQSVSNDWGGSKPPVVEEDKEFLEKKEKMHDLEQQIINASQQAESLVKAQQDMGETMGELGLAFIKLTKFENEEAVCNPQRTRANDMKNLATAAVKASRFYRELNSQTVKHLDTLHEYLGMMMAVQGAFADRSSALLTVQTLLSELPSLQTRVEKLEAASSKVFGGDKSRIRKIEELKETIKVTEDAKNVAIKGYERIKENNRSEVERLDRERRADFMNMMKGFVVNQVGYAEKMGNVWAKVAEETSQYDREKQSS
Regarding B2, the binding entry was “binds” in assay [3] and “no binding” in assay [4].

B3: ATG16 (protein, UniProt Q6NNP0 1-509)
chain: MVQEEKAMEAINDALRALRKRHLLEEGAHAPAISALSKPLISQGSEWKEKTEKLETELQQCYKAQSRLSEQLVIEVAESRTSKAILQEKELLINDLQKELTQRREDCTRLQEELEEKTKTVDVLIAENLEIRSQLEEMTSRVQKAETENKMLIDRWMLQKMQDAERLNEANDLYEEMLAKLKANGLETLARQQVDGIVRRNEDGTDHFVESTIPSTCANRIHAHEGGCGSIVFEYNSGTLFTGGQDRAVKMWDTNSGTLIKSLYGSLGNILDMAVTHDNKSVIAATSSNNLFVWDVSSGRVRHTLTGHTDKVCAVDVSKFSSRHVVSAAYDRTIKLWDLHKGYCTNTVLFTSNCNAICLSIDGLTVFSGHMDGNLRLWDIQTGKLLSEVAGHSSAVTSVSLSRNGNRILTSGRDNVHNVFDTRTLEICGTLRASGNRLASNWSRSCISPDDDYVAAGSADGSVHVWSLSKGNIVSILKEQTSPILCCSWSGIGKPLASADKNGYVCTWT
As for B3, the binding entry in assay [3] and in assay [4] was “binds” each time.

B4: SNX1 (protein, UniProt Q9FG38 1-402)
chain: MESTEQPRNISGSMQSPRSPSSHPYLSVSVTDPVKLGNGVQAYISYRVITKTNLPEYQGPEKIVIRRYSDFVWLRDRLFEKYKGIFIPPLPEKSAVEKFRFSAEFIEMRRAALDIFVNRIALHPELQQSEDLRTFLQADEETMDRFRFQETSIFKKPADLMQMFRDVQSKVSDAVLGKEKPVEETTADYEKLKHYIFELENHLTEAQKHAYRLVKRHRELGQSLLDFGKAVKLLGACEGEPTGKAFSDLGTKSELLSIKLQKEAQQVLMNFEEPLKDYVRYVQSIKATIAERGTAFKQHCELSETTKLKEINLDKLMLTRSDKVGEAEIEYREIKAESEEATRRFERIVKRMEDEIVRFQEQKTEEMGVAFHQFAKGQARLANSVADAWRSLLPKLEASYSV
As for B4, the binding entry in assay [3] was “no binding”; in assay [4] it was “binds”.

B5: SEC13B (protein, UniProt O64740 1-302)
chain: MPGQKIETGHEDIVHDVQMDYYGKRIATASSDCTIKITGVSNNGGSQQLATLTGHRGPVWEVAWAHPKYGSILASCSYDGQVILWKEGNQNQWTQDHVFTDHKSSVNSIAWAPHDIGLSLACGSSDGNISVFTARADGGWDTSRIDQAHPVGVTSVSWAPATAPGALVSSGLLDPVYKLASGGCDNTVKVWKLANGSWKMDCFPALQKHTDWVRDVAWAPNLGLPKSTIASGSQDGKVIIWTVGKEGEQWEGKVLKDFMTPVWRVSWSLTGNLLAVSDGNNNVTVWKEAVDGEWEQVTAVEP
Consider B5, for which the binding result in assay [3] is reported as “binds”.

B6: Nucleoporin 155 (protein, UniProt F4HXV6 1-1464)
chain: MSQDDEIVMRDVTSAGICIGDRIGREAASQLDLEEALEASRYASHPYSTHPREWPPLIEVGETWELPSVLIERYNTAGGEGTALCGIFPEIRRAWASVDNSLFLWRFDKRDGQCPEYSGEEQAICAVGLAKCRPGVFVEAIQYLLVLATPVELVLVGVCCTEGPDGRDPYAEISVQPLPDYTISSDGVTMTCVTCTNKGRIFMAGRDGHIYELLYTTGSGWNKRCRKVCLTAGVGSMISRWVVPNVFKFGAVDPVVEMVVDNERQILYARTEEMKLQAYVSGPNGEGPLKKVAEERNLLNQKDLSQGNRQSAVAGRSNKPSIVSISPLSMLESKWLHLVAALSDGRRMYLSTSSSGSGSTISFSGFNNHRQTPNCLKVVSTRPSPPLGVGVGLGFGAASVAGRTQNDDLSMKIETAYYSVGTLVLSDSSPPAMSSLLVVSRDSSVHSQAGSSSGPSSRSSRALREVVSSLPIEGRMLFVADVLPSPDTAATIQSLYSELEYCGVEVSGESYEKACGKLWARSDLSTQHILPRRKIVVFTTMGMMELVFNRPVDILRRLLESNSPRSLLEDFFTRFGVGEAAAMCLMLAARIINFEDLISNIVADKAAEAFEDPRIVGMPQFDGSSGLSNTRTATGGFSMGQVVQEAEPIFSGAHEGLCLCTSRLLFPLWELPVMSKKTSSDTMSEDGVVICRLSTSAMHVLESKIRSLEKFLRSRRNQRRGLYGCVAGLGDVTGSILYGTGSELGATERNMVRNLFGAYSNGGESANKRQRLPYSPAELAATEVRAMECIRQLLLRSAEALFLLQLLSQHHVARLVQELDANLKQALVQLTFHQLVCSEEGDQIATRLISAVMEYYTGSDGRGTVDDISPRLREGCPSYFKESDYKFYLAVERLERAALTSDAEEKENVAREAFSFLSKVPGSADLQTVCKRFEDLRFYEAVVCLPLQKAQALDPAGDAFNDQLDASIREHALAQRKQCYEIIANALRSLASPLASPTLDEASRSQYICQIVHLGVQSTDRAFREYLYKAMIELHLENELLEYGGPDLVPFLQNAGSHSESQVGAVSTGSSPLGHSGTQISSDQAKYFDLLAKYYVSKRQHVLAAHVFLRLAERRAISLGDSPTLERRRDDLSQAVLQAKNASNSDGLVGSAQGVSDSGLLDLLEGKLAVLQFQIKIRDKLEAIASNFESSVAMQDSDQNGQVLDGDSSDDTNLANAANEMAMEVSSELKSVTQLYNEYAVPFELWEICLEMLYFANYSGDADSSIIRETWARLIDQALSQGGIREACAVLKRVGSHIYPGDGVVLPLDVLCLHLERAALERSERIENVRDEDIAKALLAACKGAAEPVLNAYDRLLSNAAVVPSPNLRIRLLRSVLVVLREWAMSVLSDRMGSSPTRSSLILGGSFALENKAALNQGARDKIANAANRYMTEVRRLALPPNKTDGVYAGFKELDESLLSPFSF
Take B6: the binding entry in assay [3] is “binds”.

B7: ATG12B (protein, UniProt Q9LVK3 1-94)
chain: MATESPNSVQKIVVHLRATGGAPILKQSKFKVSGSDKFANVIDFLRRQLHSDSLFVYVNSAFSPNPDESVIDLYNNFGFDGKLVVNYACSMAWG
For B7, the binding result in assay [3] is “no binding”; in assay [4] it was “binds”.

B8: PP2A-A3, the scaffolding subunit of the Protein Phosphatase 2A (PP2A) (protein, UniProt Q38951 1-587)
chain: MSMVDEPLYPIAVLIDELKNDDIQRRLNSIKRLSIIARALGEERTRKELIPFLSENNDDDDEVLLAMAEELGGFILYVGGVEYAYVLLPPLETLSTVEETCVREKAVDSLCRIGAQMRESDLVEHFTPLAKRLSAGEWFTARVSACGIFHIAYPSAPDVLKTELRSIYGQLCQDDMPMVRRAAATNLGKFAATIESAHLKTDIMSMFEDLTQDDQDSVRLLAVEGCAALGKLLEPQDCVAHILPVIVNFSQDKSWRVRYMVANQLYELCEAVGPEPTRTDLVPAYARLLCDNEAEVRIAAAGKVTKFCRILNPELAIQHILPCVKELSSDSSQHVRSALASVIMGMAPVLGKDATIEHLLPIFLSLLKDEFPDVRLNIISKLDQVNQVIGIDLLSQSLLPAIVELAEDRHWRVRLAIIEYIPLLASQLGVGFFDEKLGALCMQWLQDKVHSIREAAANNLKRLAEEFGPEWAMQHIVPQVLEMINNPHYLYRMTILRAVSLLAPVMGSEITCSKLLPAVITASKDRVPNIKFNVAKMMQSLIPIVDQAVVENMIRPCLVELSEDPDVDVRYFANQALQSIDNVMMSS
For B8, the binding entry in assay [3] and in assay [4] was “binds” throughout.

Source of the values: PMC10418956.
